About 22,000 (6.9%) of roughly 320,000 compounds were called active. The shares of active, inactive and inconclusive entries below differ from those in the screen. Calls follow the shape of the dose curve; as a rule, active = well fitted inhibition curve with a large enough effect; inconclusive = small, poorly fitted or top-dose-only effect, or another doubt; inactive = no such curve, though single readings can be large or run the other way. A potency beside an inconclusive call is a rough fit, not a confirmed value.
Test: Primary qHTS for delayed death inhibitors of the malarial parasite plastid, 96 hour incubation
Details: P. falciparum luciferase reporter growth; series mostly up to 28.7 µM; activity change, negative = inhibition: at the top concentration
In short: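 Infected RBCs, 2% Hct / 0.05% parasitemia final; luciferase-reporter P. falciparum; cpd 96 h, 37 C, 5% CO2; luciferase detection reagent; luminescence.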
% is scaled to controls: 0 for no effect and ±100 for the full control effect; potency is read from the fitted curve at half-maximal effect.

| Structure (SMILES) | activity change, negative = inhibition | Potency |
| --- | --- | --- |
| CCCCCC(=O)Nc1ccc(C(=O)COC(=O)Cn2cnc3c2c(=O)n(C)c(=O)n3C)cc1 | inactive: 1.69% | – |
| O=C(Nc1cccc([N+](=O)[O-])c1)N1CCCCCC1 | – | active: 3.7 µM |
| Cn1c(N2CCCCC2)nc2c1c(=O)[nH]c(=O)n2C | – | active: 10.4 µM |
| Cc1cccc(C)c1OCCN1CCCC1 | – | inconclusive: 18.5 µM [inhibitor, single point] |
| Clc1cccc(-c2nc(NCCCN3CCOCC3)c3ccccc3n2)c1 | – | inconclusive: 13.1 µM [inhibitor, single point] |
| Cc1c(Cl)ccc2c(C(=O)NCCN3CCCCC3)cc(-c3ccccn3)nc12 | – | inconclusive: 11.7 µM [inhibitor, single point] |
| CCOC(=O)N1CCN(C(=O)C2CCC(=O)N(Cc3ccc(Cl)cc3)C2)CC1 (centres undefined) | inactive: -3.26% | – |
| CCC(Sc1nc2n[nH]c(C)c2c(=N)n1-c1cccc(Cl)c1)C(=O)NCCOC (centres undefined) | inactive: 0% | – |
| CC(=O)Nc1cc2c(cc1NC(=O)c1cnccn1)OCCO2 | – | inconclusive: 0.131 µM [inhibitor, full curve, poor fit] |
| O=C1Nc2ccc(Cl)cc2C12OCCCO2 | – | inconclusive: 18.5 µM [inhibitor, single point] |
| CCc1ccc(/C(C)=N/NC(=O)c2c[nH]c3ccccc23)s1 | inactive: 17.7% | – |
| COc1cccc(C2C(C(C)=O)=C(O)C(=O)N2CCNCCO)c1 (centres undefined) | – | inconclusive: 14.7 µM [inhibitor, partial curve, poor fit] |
| CC1=C(C(=O)N(C)C)C(c2ccc(C)s2)NC(=S)N1 (centres undefined) | inactive: 18.3% | – |
| CS(=O)(=O)N(Cc1ccccc1)c1ccccc1C(=O)Nc1ccccc1C(=O)NCc1ccco1 | – | inconclusive: 16.5 µM [inhibitor, partial curve, poor fit] |
| N#CC(c1ccc(Cl)cc1)(c1ncc(C(F)(F)F)cc1Cl)N1CCOCC1 (centres undefined) | – | inconclusive: 0.0037 µM [inhibitor, full curve, poor fit] |
| Cc1ccc(-c2nc3ccccc3nc2-c2ccccc2)cc1 | – | inconclusive: 13.1 µM [inhibitor, single point] |
| COc1cccc(-n2nnc3c(=O)n(CC(=O)N4CCCCC4)cnc32)c1 | – | inconclusive: 13.1 µM [inhibitor, single point] |
| FC(F)(F)c1cccc(Cn2nnnc2-c2cccc(C(F)(F)F)c2)c1 | – | inconclusive: 9.28 µM [inhibitor, single point] |
| O=C(CN(C(=O)c1csnn1)c1ccc(F)c(Cl)c1)NCc1ccc(F)cc1 | – | inconclusive: 1.65 µM [inhibitor, partial curve, poor fit] |
| CC(=O)Nc1ccccc1NC(=O)c1cccc2ccccc12 | – | inconclusive: 18.5 µM [inhibitor, single point] |
| COc1ccc(CN(C)S(=O)(=O)c2nnc(NC(=O)c3cccc(F)c3)s2)cc1OC | – | inconclusive: 13.1 µM [inhibitor, partial curve] |
| COC(=O)c1ccc(-c2noc(CN(C)CCC3CCCCO3)n2)cc1 (centres undefined) | – | inconclusive: 14.7 µM [inhibitor, partial curve, poor fit] |
| COc1cccc(Oc2nc(-c3ccncc3)nc3ccccc23)c1 | – | inconclusive: 1.65 µM [inhibitor, full curve, poor fit] |

| Structure (SMILES) | activity change, negative = inhibition | Potency |
| --- | --- | --- |
| COc1ccc(N2CCN(S(=O)(=O)c3cc4c5c(c3)C(C)C(=O)N5CCC4)CC2)cc1 (centres undefined) | – | inconclusive: 16.5 µM [inhibitor, single point] |
| CCOc1ccccc1/C=C/c1onc(C)c1S(=O)(=O)N1CCC(C(=O)N(CC)CC)CC1 | inactive: 11.6% | – |
| Cc1nc2c(c(=O)n1Cc1ccccc1Cl)c1nc3ccccc3nc1n2Cc1ccco1 | – | inconclusive: 18.5 µM [inhibitor, single point] |
| CC(C)c1ccc(NC(=O)c2cc(S(=O)(=O)NCC3COc4ccccc4O3)ccc2F)cc1 (centres undefined) | – | active: 2.94 µM |
| CCCNC(=O)Nc1ccc(F)c(Cl)c1 | – | inconclusive: 18.5 µM [inhibitor, single point] |
| Cc1[nH]c2ccccc2c1C(=O)C(=O)N1CC(C)OC(C)C1 (centres undefined) | – | inconclusive: 18.5 µM [inhibitor, single point] |
| CC1CCCC(NC(=O)CSc2nccn2C)C1C (centres undefined) | – | inconclusive: 0.0738 µM [inhibitor, full curve, poor fit] |
| O=C(O)c1cccc(CSc2nnc(-c3cccnc3)o2)c1 | – | inconclusive: 13.1 µM [inhibitor, single point] |
| COc1ccc(NC(=O)Cc2csc(NC(=O)Nc3ccccc3OC)n2)c(OC)c1 | inactive: 0.286% | – |
| O=C(CCNc1ccccc1)c1ccc2c(c1)OCO2 | inactive: -18.4% | – |
| COc1cc(/C=C2\SC(c3ccc(C)cc3)=NC2=O)cc(OC)c1OC | – | inconclusive: 18.5 µM [inhibitor, single point] |
| Nn1cnnc1N/N=C/c1ccc(Cl)c([N+](=O)[O-])c1 | – | inconclusive: 18.5 µM [inhibitor, single point] |
| COC(=O)C1=C(C)OC(N)=C(C#N)C1c1c(C)nn(-c2ccccc2)c1Cl (centres undefined) | – | inconclusive: 18.5 µM [inhibitor, single point] |
| CC(C)CC1Nc2ncnc(N3CCOCC3)c2N(Cc2ccc(Br)cc2)C1=O (centres undefined) | – | inconclusive: 18.5 µM [inhibitor, single point] |
| COC(=O)COc1ccc2oc(=O)cc(-c3cc4ccccc4o3)c2c1 | inactive: -16.4% | – |
| CCOC(=O)c1c[nH]c2c(Cl)c(Cl)ccc2c1=O | inactive: -33.6% | – |
| CCOC(=O)[C@H]1[C@H]2COc3ccc(Cl)cc3[C@@H]2N2C(=O)CN(Cc3ccco3)C(=O)[C@@]12C | – | inconclusive: 11.7 µM [inhibitor, partial curve, poor fit] |
| COC(=O)N/N=C\c1cccc(OC(=O)c2cccs2)c1 | inactive: 7.38% | – |
| CCn1cc(C(=O)Nc2ccccc2)c(=O)c2ccc(C)nc21 | inactive: -6.38% | – |
| Cc1cccc(NC(=O)C2CCN(S(=O)(=O)c3cccs3)CC2)c1 | inactive: -26.2% | – |
| Cn1c(=O)oc2cc(S(=O)(=O)CCC(=O)N3CCN(c4ccccc4)CC3)ccc21 | – | active: 9.28 µM |
| COc1ccc(Nc2nc3ccccc3c(=O)s2)c(OC)c1 | – | inconclusive: 18.5 µM [inhibitor, single point] |
| COCCCn1c(SCc2cccc(C(F)(F)F)c2)nc2cc(OC)c(OC)cc2c1=N | – | inconclusive: 18.5 µM [inhibitor, single point] |

Laid out differently: entries from further up.
Structure (SMILES)	activity change, negative = inhibition	Potency
CC(C)CC1Nc2ncnc(N3CCOCC3)c2N(Cc2ccc(Br)cc2)C1=O (centres undefined)	–	inconclusive: 18.5 µM [inhibitor, single point]
COC(=O)COc1ccc2oc(=O)cc(-c3cc4ccccc4o3)c2c1	inactive: -16.4%	–
CCOC(=O)c1c[nH]c2c(Cl)c(Cl)ccc2c1=O	inactive: -33.6%	–

(continued)

| Structure (SMILES) | activity change, negative = inhibition | Potency |
| --- | --- | --- |
| CCC(=O)N(CCC1(c2ccccc2OC)CCOC(C(C)C)C1)Cc1ccco1 (centres undefined) | – | active: 10.4 µM |
| COc1ccccc1NC(=O)COC(=O)CCC(=O)c1cccs1 | – | inconclusive: 4.15 µM [inhibitor, single point] |
| CCCc1ccc2oc(C(=O)N3CCN(CCC(N)=O)CC3)c(C)c2c1 | – | inconclusive: 13.1 µM [inhibitor, single point] |
| COCCc1nc2ccc(C(=O)N(C)Cc3cccc(-n4cccn4)c3)cc2o1 | – | inconclusive: 11.7 µM [inhibitor, single point] |
| Cc1ccc(C2CC(c3ccc(NS(C)(=O)=O)cc3)=NN2C(=O)c2ccco2)cc1 (centres undefined) | – | inconclusive: 14.7 µM [inhibitor, single point] |
| CC1(C)CC(CC(=O)Nc2ccccc2[N+](=O)[O-])C(=O)O1 (centres undefined) | – | inconclusive: 14.7 µM [inhibitor, single point] |
| COc1cccc(Oc2ccc(C(F)(F)F)cc2NC(=O)c2cccc(F)c2)c1 | – | inconclusive: 18.5 µM [inhibitor, single point] |
| O=C(OCC(=O)N1CCCc2ccccc21)c1cc(Br)ccc1O | – | inconclusive: 1.47 µM [inhibitor, partial curve, poor fit] |
| COc1ccc(Cl)cc1S(=O)(=O)N(C)CC(=O)N1CCCC1 | – | active: 5.86 µM |
| CCc1ccc(C2C3=C(CCCC3=O)OC3=C2C(=O)CCC3)cc1 | – | inconclusive: 9.28 µM [inhibitor, single point] |
| CC(Nc1cc(N2CCNCC2)ccc1[N+](=O)[O-])c1ccccc1 (centres undefined) | inactive: 34.6% | – |
| CN1CCN(NC(=O)CN(C)S(=O)(=O)c2cc(Cl)ccc2Cl)CC1 | – | active: 11.7 µM |
| O=S(=O)(c1ccc(S(=O)(=O)N2CCN(Cc3ccccc3)CC2)cc1)N1CCOCC1 | – | inconclusive: 10.4 µM [inhibitor, single point] |
| Cc1[nH]n(-c2nc(-c3ccccc3F)cc(=O)[nH]2)c(=O)c1CCO | inactive: -1.12% | – |
| COc1ccc(-c2nnc(NC(=O)c3ccccc3[N+](=O)[O-])s2)c(OC)c1 | inactive: 5.99% | – |
| COc1ccccc1NC(=S)NCCc1ccccc1 | – | inconclusive: 18.5 µM [inhibitor, single point] |
| COC(=O)c1cc(N=Nc2sc(N)nc2C)cc(C(=O)OC)c1 | – | inconclusive: 18.5 µM [inhibitor, single point] |
| COc1ccc(CC(=O)N2CCc3ccccc3C2)cc1 | – | active: 8.28 µM |
| O=C(Nc1ccccc1)C1CCN(S(=O)(=O)c2ccc3c(c2)OCCO3)CC1 | – | inconclusive: 9.28 µM [inhibitor, partial curve] |
| CC(C)CCOc1ncnc2c1sc1nc3c(cc12)CSC(C)(C)C3 | – | inconclusive: 10.4 µM [inhibitor, single point] |
| Fc1cccc(CNCCc2c[nH]c3ccccc23)c1 | – | inconclusive: 0.0329 µM [inhibitor, full curve, poor fit] |
| CCCN(CCC)C(=O)Cn1c(=O)c2sccc2n2c(=S)sc(-c3ccccc3)c12 | – | inconclusive: 13.1 µM [inhibitor, partial curve, poor fit] |
| CSc1ccc(CNCCCSc2ncccn2)cc1 | – | inconclusive: 11.7 µM [inhibitor, single point] |

— PubChem BioAssay AID504834 (National Center for Advancing Translational Sciences (NCATS), 2011)
